From US20150150156A1, “METHODS AND COMPOSITIONS FOR REDUCING GENE EXPRESSION IN PLANTS” (The Regents of the University of California, published 2015) come the findings set out here.

Results are given in words; binding and its absence hold for the method and conditions named. Binding seen in cells or lysates may run through a third protein. These calls come from enrichment with a bait or labelling near it, and not all partners need be listed. Sequences can lack the tags named with a protein.

Assay [1] concerns the target T1, Arabidopsis thaliana SUVR5 protein (Arabidopsis thaliana) (UniProt O64827).
T1 sequence: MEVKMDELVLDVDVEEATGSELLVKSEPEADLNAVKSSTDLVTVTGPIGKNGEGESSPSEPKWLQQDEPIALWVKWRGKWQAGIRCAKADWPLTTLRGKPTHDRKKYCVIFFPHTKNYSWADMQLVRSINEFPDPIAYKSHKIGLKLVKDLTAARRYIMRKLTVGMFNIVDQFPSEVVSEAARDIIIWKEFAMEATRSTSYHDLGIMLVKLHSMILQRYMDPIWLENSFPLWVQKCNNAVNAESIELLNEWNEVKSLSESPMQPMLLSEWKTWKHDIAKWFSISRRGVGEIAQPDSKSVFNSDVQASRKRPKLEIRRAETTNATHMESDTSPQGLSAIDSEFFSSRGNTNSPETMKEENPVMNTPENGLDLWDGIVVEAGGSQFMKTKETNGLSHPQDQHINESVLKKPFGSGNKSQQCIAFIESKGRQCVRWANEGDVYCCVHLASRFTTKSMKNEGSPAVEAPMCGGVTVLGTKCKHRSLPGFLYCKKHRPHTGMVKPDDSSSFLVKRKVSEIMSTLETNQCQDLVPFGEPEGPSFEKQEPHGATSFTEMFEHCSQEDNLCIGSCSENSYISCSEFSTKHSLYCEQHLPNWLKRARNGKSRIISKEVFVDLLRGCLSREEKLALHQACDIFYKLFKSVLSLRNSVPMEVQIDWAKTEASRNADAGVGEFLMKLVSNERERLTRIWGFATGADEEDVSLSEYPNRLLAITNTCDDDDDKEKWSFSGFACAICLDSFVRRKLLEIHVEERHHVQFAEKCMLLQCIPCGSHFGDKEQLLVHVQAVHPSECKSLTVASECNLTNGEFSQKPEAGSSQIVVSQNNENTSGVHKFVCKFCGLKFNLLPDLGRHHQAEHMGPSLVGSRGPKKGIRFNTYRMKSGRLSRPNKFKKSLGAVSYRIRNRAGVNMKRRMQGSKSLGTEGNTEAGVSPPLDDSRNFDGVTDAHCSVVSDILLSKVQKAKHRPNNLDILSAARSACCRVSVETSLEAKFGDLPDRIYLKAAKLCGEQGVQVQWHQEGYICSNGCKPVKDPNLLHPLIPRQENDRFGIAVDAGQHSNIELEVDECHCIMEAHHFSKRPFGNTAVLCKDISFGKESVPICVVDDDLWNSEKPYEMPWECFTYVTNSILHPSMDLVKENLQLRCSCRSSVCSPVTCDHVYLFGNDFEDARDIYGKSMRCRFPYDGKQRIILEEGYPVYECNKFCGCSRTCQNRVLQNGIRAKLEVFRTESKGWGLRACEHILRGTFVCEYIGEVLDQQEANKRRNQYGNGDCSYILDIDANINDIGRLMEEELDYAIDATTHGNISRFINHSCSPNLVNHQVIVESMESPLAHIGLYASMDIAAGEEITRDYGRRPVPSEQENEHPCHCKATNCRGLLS
As to the kind of experiment: mass spectrometry analysis of LDL1 affinity purifications (FIG. 15B).

The target of assay [2] is T1, Arabidopsis thaliana SUVR5 protein (Arabidopsis thaliana). As to the kind of experiment: FLAG affinity purification of LDL1-3xFLAG from plant inflorescence tissue, mass spectrometry of co-purified proteins.

B1: LDL1-3× FLAG (enzyme, Arabidopsis, UniProt Q8VXV7 1-844, looked up, not shown: small tags and cut ends)
chain: MSTETKETRPETKPEDLGTHTTVDVPGEEPLGELIADDVNEVVSDASATETDFSLSPSQSEQNIEEDGQNSLDDQSPLTELQPLPLPPPLPVEARISESLGEEESSDLVTEQQSQNPNAAEPGPRARKRRRRKRFFTEINANPAFSRNRRTSVGKEVDSEALIAMSVGFPVYSLTEEEIEANVVSIIGGKDQANYIVVRNHIIALWRSNVSNWLTRDHALESIRAEHKTLVDTAYNFLLEHGYINFGLAPVIKEAKLRSFDGVEPPNVVVVGAGLAGLVAARQLLSMGFRVLVLEGRDRPGGRVKTRKMKGGDGVEAMADVGGSVLTGINGNPLGVLARQLGLPLHKVRDICPLYLPNGELADASVDSKIEASFNKLLDRVCKLRQSMIEENKSVDVPLGEALETFRLVYGVAEDQQERMLLDWHLANLEYANATLLGNLSMAYWDQDDPYEMGGDHCFIPGGNEIFVHALAENLPIFYGSTVESIRYGSNGVLVYTGNKEFHCDMALCTVPLGVLKKGSIEFYPELPHKKKEAIQRLGFGLLNKVAMLFPCNFWGEEIDTFGRLTEDPSTRGEFFLFYSYSSVSGGPLLVALVAGDAAERFETLSPTDSVKRVLQILRGIYHPKGIVVPDPVQALCSRWGQDKFSYGSYSYVAVGSSGDDYDILAESVGDGRVFFAGEATNRQYPATMHGAFLSGMREAANILRVARRRASSSALNPNQICIDKEEEVDEEEDRCLDQLFETPDLTFGNFSVLFTPNSDEPESMSLLRVRIQMEKPESGLWLYGLVTRKQAIELGEMDGDELRNEYLREKLGLVPVERKSLSQEGESMISSLKAARLNRQIFD
Regarding B1, the binding entry in assay [1] and in assay [2] was “binds” in each case.
